Assay results published in US20230027247A1, “SMALL MOLECULE COMPOUNDS FOR AMPLIFYING HEMATOPOIETIC STEM CELLS, AND COMBINATION THEREOF” (EDIGENE (GUANGZHOU) INC., priority 2019, published 2023).
For at least one compound, name, drawing or mass did not settle the structure.

Tested on: irradiated NPG mice
Experiment: In vivo transplantation of inhibitor-treated cord blood CD34+ cells into irradiated NPG mice (human CD45 proportion and lineages)
Details: FIG. 21; for transplantation efficiency (human CD45 proportion) in peripheral blood (comparison): cells treated 7 days, Dasatinib 50 nM, SR1 5 μM
[1] = week 16, Dasatinib 50 nM vs SR1 5 μM

Cc1nc(Nc2ncc(C(=O)Nc3c(C)cccc3Cl)s2)cc(N2CCN(CCO)CC2)n1 [Dasatinib]
transplantation efficiency (human CD45 proportion) in peripheral blood (comparison) (week 8): significantly higher than that of the Mock group and the SR1 group | transplantation efficiency (human CD45 proportion) in peripheral blood (comparison) (week 12): significantly higher than that of the Mock group and the SR1 group | transplantation efficiency (human CD45 proportion) in bone marrow (comparison) [1]: significantly higher than that in the SR1 group | transplantation efficiency (human CD45 proportion) in spleen (comparison) [1]: significantly higher than that in the SR1 group | transplantation efficiency (human CD45 proportion) in peripheral blood (comparison) (week 16): significantly higher than that of the Mock group and the SR1 group
